# At least one compound was matched to its structure with a doubt left.
# Chains of the proteins cited; added tags and fusions are not shown. Residues count along the entry.
# UniProt P36544, 23-502: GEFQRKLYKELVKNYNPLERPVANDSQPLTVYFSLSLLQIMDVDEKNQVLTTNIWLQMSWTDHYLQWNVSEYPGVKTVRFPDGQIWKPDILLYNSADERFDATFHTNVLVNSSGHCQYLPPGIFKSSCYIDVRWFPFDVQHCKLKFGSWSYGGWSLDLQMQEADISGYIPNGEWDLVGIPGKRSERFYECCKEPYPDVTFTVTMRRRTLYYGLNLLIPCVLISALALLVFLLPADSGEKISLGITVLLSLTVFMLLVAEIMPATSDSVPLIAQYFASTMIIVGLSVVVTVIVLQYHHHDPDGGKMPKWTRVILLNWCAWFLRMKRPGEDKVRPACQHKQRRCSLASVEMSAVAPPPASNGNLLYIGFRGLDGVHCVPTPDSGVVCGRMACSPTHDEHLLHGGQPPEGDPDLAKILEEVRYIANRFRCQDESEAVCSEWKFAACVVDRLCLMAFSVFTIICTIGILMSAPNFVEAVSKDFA
# Legend:
# [1] = target: more than 225 different kinases; assay: Kinase activity profiling in an assay comprising more than 225 different kinases; assay type: biochemical
# [2] = target: T1, human alpha 7-wt nAChR-expressing GH4C1 cells (Homo sapiens, UniProt P36544); assay: Patch-clamp current recording (whole-cell voltage-clamp, PAM type classification); assay type: cell-based; set-up: key: Type 0 compounds minimally change the effect size of the current elicited by 1 mM choline.; Type 1 compounds enhance the effect size of the current elicited by 1 mM choline but minimally alter the kinetics of the receptor.; Type 2 compounds enhance the effect size of the current elicited by 1 mM choline while reducing the rate and/or the extent of desensitization.; Type 3 compounds enhance the effect size of the current elicited by 1 mM choline. When tested at higher concentrations up to 10 μM they completely inhibit desensitization; Type 4 compounds allow for an initial desensitization of the receptor followed by a re-opening of the receptor during agonist application; details: 1 mM choline
# T1 construct: expressed in transfected cells
# Protocol: The compounds of the present invention are classified as type 1-4, based on qualitative kinetic properties, as determined by whole-cell voltage-clamp recordings. This classification is based on the effect of an alpha 7 PAM compound, as described hereinbefore, on the signal elicited by an agonist application. In particular, said agonist is choline at a concentration of 1 mM. In a preferred experimental setting, said alpha 7 PAM compound and choline are simultaneously applied to the cell, as described hereinafter. Desensitization is defined as the closure of the receptor upon activation during the application of the agonist in whole-cell voltage-clamp electrophysiology measurements seen as the reduction of the […] current after initial activation by the agonist.
# The definition of the PAM types 1-4 is described hereinafter: • Type 0 compounds minimally change the effect size of the current elicited by 1 mM choline. • Type 1 compounds enhance the effect size of the current elicited by 1 mM choline but minimally alter the kinetics of the receptor. In particular, the rate and the extent of desensitization and of deactivation of the receptor elicited by the agonist is not affected. […]
# The compounds also have a potentiating effect on the response to choline when measured by whole-cell patch clamp electrophysiology in GH4C1 cells stably over-expressing the human wild-type alpha 7 receptor. […]
structure (smiles),measurement,setting,value
"Cc1cc(-c2sc(N3C[C@@H](C)O[C@@H](C)C3)nc2CNC(=O)c2ccc(Cl)cc2C)cc(C)n1 [Compound 22, 4-chloro-N-[[2-[(2R,6S)-2,6-dimethyl-4-morpholinyl]-5-(2,6-dimethyl-4-pyridinyl)-4-thiazolyl]methyl]-2-methyl-benzamide]",kinase activity,[1],did not show activity against any of the tested kinases
same,PAM_Type PAM type,[2],2

# — patent publication US8637510B2, “Morpholinothiazoles as alpha 7 positive allosteric modulators” (Janssen Pharmaceutica NV, priority 2009, dated 2014)
